Assay results as given in article doi:10.1101/2022.05.24.493257.
No constants are given. Whether binding was seen depends on the method and setting. Binding seen in cells or lysates may run through a third protein. Some entries that bind do so weakly or less than the wild type.

Chains of the proteins cited; added tags and fusions are not shown. Lines headed by an entry give the natural chain unless they say otherwise; changes in a name come on top. A line that says so, or that is headed by a name, gives the form on record, which may keep a tag or linker.
NRAS-G12V re-expressed in Rasless MEFs (P01111, form named): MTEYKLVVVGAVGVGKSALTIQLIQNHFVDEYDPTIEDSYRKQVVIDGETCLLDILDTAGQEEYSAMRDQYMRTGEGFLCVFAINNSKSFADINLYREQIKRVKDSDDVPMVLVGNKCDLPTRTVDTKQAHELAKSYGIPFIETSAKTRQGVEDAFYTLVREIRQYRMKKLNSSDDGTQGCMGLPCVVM

Legend:
[1] = molecular target: NRAS-G12V re-expressed in Rasless MEFs (UniProt P01111); test: pull-down
[2] = molecular target: KRAS-G12V re-expressed in Rasless MEFs (UniProt P01116); test: pull-down

binding [1]: no binding
binding [2]: binds
Substance: PKCα in Rasless MEFs (from UniProt P20444 1-672) (enzyme)
